Values quoted from earlier work in patent US20030099944A1, “Combination therapy involving drugs which target cellular proteins and drugs which target pathogen-encoded proteins” (priority 1998, published 2003).
pIC50: −log10 of the molar value.

System: a wide variety of mammalian cells
Details: read-out: average IC50, block of cell-cycle progression; cited from earlier work

Question: With `CC[C@H](CO)Nc1nc(NCc2ccccc2)c2ncn(C(C)C)c2n1` [Rosco, Roscovitine] as the compound, how does the pIC50 read?
Answer: 4.80
